## Screening data

The results are deposited in PubChem (AID1159506; NCATS, 2015).

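Luminescence from an EWS-FLI1 target-promoter (NR0B1) reporter, set against a CMV-promoter reporter, two days after silencing single genes in TC32 Ewing sarcoma cells.
Each siRNA was applied at 20 nM.
A z-score of the log NR0B1-over-CMV signal, less the median of siRNAs with the same seed; more negative means a stronger specific loss of the NR0B1 reporter.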

This is part of the screen; most of the strongest results are not listed here.
Sequences are the guide (antisense) strand, without overhang.

With AACUGGAUAGUAUUCCACC against COL12A1 the assay gave seed-corrected z-score 0.5184. UGCUCGAUCGUAAUCCACC against PAK7 read seed-corrected z-score -0.2324. With UUUGUUAGGAGAGACAAUG against KRTAP5-4 the assay gave seed-corrected z-score 0.2732. UUCCUGGUAUGCUUCAUCU against WHAMM read seed-corrected z-score 0.03014. UGUGCUUUCGGCCAAGCAC against FAAP20 read seed-corrected z-score 0.1652. For AAGAUGGGCACGGAAAUGU against GPR150 the result was seed-corrected z-score -0.1813. UAGGUUGGAAUCUCCUUUC against PCDHGA3 read seed-corrected z-score -0.4271. UAAUGAAAAGGGUCCAUUU against FXYD6 gave seed-corrected z-score 0.006268.

For UAAACGAGAACUAGUAUUG against PDZD8 the result was seed-corrected z-score -0.207. Result for UGAAGAAGUUGACUGAACC against ANGPTL6 was seed-corrected z-score 0.06106. UGUUGAGCUCUUUUCCUGG against SHISA9 gave seed-corrected z-score 0.138. With UGAGCUGUCAGCAAAACCC against ZNF48 the assay gave seed-corrected z-score -0.02558. For UGAUCGCUUCUGCUGGUGG against YIPF2 the result was seed-corrected z-score -0.02825. With ACCUGAAUUUGAGUCAUCC against CBLL1 the assay gave seed-corrected z-score 0.2788. UGGAUUGUCCGGUAUAUGC against MTO1 gave seed-corrected z-score -0.3933. With UAUCUCAUCUCUCCGCACC against PPM1M the assay gave seed-corrected z-score -0.04494.

For UCAUUUUGAAUUUCUUACC against ZBTB43 the result was seed-corrected z-score 0.9281. AAUUGACCAAACAUUUGUC against RBFOX1 read seed-corrected z-score 0.3744. With UCAGUGACAGGUGAUCCUC against CD3E the assay gave seed-corrected z-score 1.522. For UAGCGGUCAAUUUCGUGAG against HLA-DMA the result was seed-corrected z-score -1.199. With UAUGUGAAACAUAAGUUUC against SMIM10 the assay gave seed-corrected z-score -0.1763. UGUAGUAGUAAGUCCUUCC against PRPF40A read seed-corrected z-score -1.325. For UCAAUAAGCUGUGCGAUUG against C1GALT1C1L the result was seed-corrected z-score -0.4589. Result for UUAGUAGAAGAUGCCCAGG against MESP2 was seed-corrected z-score -0.3075.

Result for UAUCUAUAUUCAGUACUUC against TYW5 was seed-corrected z-score 0.687. UCAGGGUUCAAGUUUUGCU against DLGAP4 read seed-corrected z-score 1.89. For UACGUAAGUAACCACAUGC against LOC402715 the result was seed-corrected z-score -0.3121. For AACUGUGCAGGUUUGUCUG against SUMO4 the result was seed-corrected z-score 1.135. ACCUCAUUAACAACUCUCU against DUS2 read seed-corrected z-score -0.008156. With UUCGGUCAUAGUACGUAUC against TGM7 the assay gave seed-corrected z-score -0.9157. Result for AUAGGGUAAAUGAUGGUUU against SLC25A23 was seed-corrected z-score 1.254. Result for UUUCUUUAUCCAGAUGAUC against PDRG1 was seed-corrected z-score -1.44.

Result for AAUGUUCUGAAUUCAUCCC against CPAMD8 was seed-corrected z-score -0.1557. UUCAUGGUGCAUCAAAUCC against LAIR2 read seed-corrected z-score 0.09563. Result for UGUACAAUCAUGUGGGUCU against ZNF710 was seed-corrected z-score -1.584. For AAACUGAUGGAAUAUAGGC against HACD2 the result was seed-corrected z-score 0.07704. With AUCGUUGACAUGGUCCACC against GLIS2 the assay gave seed-corrected z-score -0.5469. For UCCUCUGCAUCACUCUUGG against CABP4 the result was seed-corrected z-score -1.074.

Repeated from the top, 2 entries:

Sequence,target gene,seed-corrected z-score
AACUGGAUAGUAUUCCACC,COL12A1,0.5184
UGCUCGAUCGUAAUCCACC,PAK7,-0.2324